Experimental data as given in PMC4041447.
Residue numbers refer to the chain shown, from its start. No constants are given. Whether binding was seen depends on the method and setting. In cells and extracts the contact can be indirect. A result given as binding can be weak or reduced; the word gives no strength. Where a sequence is shown, tags or fusion partners need not be part of it.

Tests used:
GST–FOXK2(1–218)(R58A) = biological target: T1, GST–FOXK2(1–218)(R58A) (UniProt Q01167); assay: pull-down; purified bacterially expressed GST–FOXK2(1–218) derivatives and total cell extracts from U2OS cells; with or without ethidium bromide (200 μg/ml); detection by immunoblotting; only the target purified
T1 sequence: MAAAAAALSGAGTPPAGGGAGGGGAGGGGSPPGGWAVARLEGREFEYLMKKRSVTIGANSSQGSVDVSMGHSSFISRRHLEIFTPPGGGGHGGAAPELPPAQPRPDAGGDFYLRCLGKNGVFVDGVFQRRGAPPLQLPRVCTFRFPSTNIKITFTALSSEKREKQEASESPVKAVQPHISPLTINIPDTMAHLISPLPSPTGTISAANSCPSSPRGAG

GST–FOXK2(1–218) = biological target: T2, GST–FOXK2(1–218) (UniProt Q01167); assay: as above
T2 sequence: T1 sequence with A58R

Substance: endogenous HCFC1 (U2OS) (human (endogenous in U2OS))
- binding (GST–FOXK2(1–218)(R58A)): binds
- binding (GST–FOXK2(1–218)): binds
